Experimental data from paper PMC9452699.
Substitutions are numbered along the chain they refer to. Results are given in words; binding and its absence hold for the method and conditions named. Binding seen in cells or lysates may run through a third protein. Some binding calls cover weakened binding; strength is not graded here. Tags and fused reporters may be left off the sequences shown.

Assays:
[1] = molecular target: T1, flag-Batf3 Mut (H57Q, E58A, Q65D, E79K) (UniProt Q9D275); experiment: co-IP; lysate (IP lysis buffer) of transduced mouse CD4+ T cells after 48 hrs in iTreg conditions, incubated overnight with anti-flag antibody agarose beads, washed 3x with PBS; blot with anti-FLAG, anti-IRF4 and anti-JUNB
T1 sequence: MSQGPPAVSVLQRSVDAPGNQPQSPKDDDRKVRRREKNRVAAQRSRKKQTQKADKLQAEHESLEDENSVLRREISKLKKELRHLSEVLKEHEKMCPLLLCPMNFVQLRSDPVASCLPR

flag-Batf3 WT = molecular target: T2, flag-Batf3 WT (UniProt Q9D275); experiment: as above
T2 sequence: T1 sequence with Q57H, A58E, D65Q, K79E

B1: JUNB (protein, UniProt P09450 1-344)
chain: MCTKMEQPFYHDDSYAAAGYGRSPGSLSLHDYKLLKPTLALNLADPYRGLKGPGARGPGPEGSGAGSYFSGQGSDTGASLKLASTELERLIVPNSNGVITTTPTPPGQYFYPRGGGSGGGTGGGVTEEQEGFADGFVKALDDLHKMNHVTPPNVSLGASGGPQAGPGGVYAGPEPPPVYTNLSSYSPASAPSGGSGTAVGTGSSYPTATISYLPHAPPFAGGHPAQLGLSRGASAFKEEPQTVPEARSRDATPPVSPINMEDQERIKVERKRLRNRLAATKCRKRKLERIARLEDKVKTLKAENAGLSSAAGLLREQVAQLKQKVMTHVSNGCQLLLGVKGHAF
binding [1]: binds
binding (flag-Batf3 WT): binds
